This test concerns murine hepatitis virus (MHV). Description: microbe, parasite or virus in culture. The format is cell-based. To be noted: Murine coronavirus, read-out: % Inhibition MHV-DBT cells 10 μM.

Broadly, the inhibition is how much of the control response was suppressed.

Regarding `CNC(=O)c1ccccc1Sc1ccc2c(/C=C/c3ccccn3)n[nH]c2c1` [Axitinib], the inhibition at 10 µM was found to be 35%.
